In the supplement of paper PMC12889115:
The other results are listed elsewhere or left out. Values are raw readings; no control value is given beside them.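 In the initial screen, polymyxin B was used at a concentration that permeabilizes Salmonella's outer membrane but not its inner membrane. Maximum growth was set by DMSO wells with or without polymyxin B. Since plates varied, data were ranked per plate, and compounds giving the lowest OD600 advanced as hits.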

Tested on: Salmonella enterica serovar Typhimurium SL1344
Experiment: bacterial growth OD600 after 18 h with compound and polymyxin B; higher = more bacterial growth (less inhibition)
Details: 50 µM, Mueller-Hinton broth

Row | Structure (SMILES) | bacterial growth OD600 (polymyxin B 1 µg/mL) | bacterial growth OD600 (polymyxin B 0.75 µg/mL)
1 | COCCN(CC1CCN(Cc2ccccc2OC)CC1)C(=O)[C@H](C)NC(C)=O | 0.956 | 
2 | CCNC(=O)c1cn(CC(C)C)cc(C(=O)N2CC3(C)CC2CC(C)(C)C3)c1=O (stereo not given) |  | 0.828
3 | CN(C(=O)c1cnn(Cc2ccccc2)c1)C1CCCN(Cc2ccccc2F)C1 (stereo not given) | 0.875 | 
4 | c1ccc(-c2ccc(-c3n[nH]cc3CN3CCN(c4ncccn4)CC3)cc2)cc1 | 0.006 | 
5 | COC(=O)C1CCN(CC2(O)CCCN(Cc3ccccc3F)C2=O)CC1 (stereo not given) | 0.983 | 
6 | CCC1CN(CCC(=O)N2CCN(c3nc(C)cnc3C)CC2)Cc2ccc(Cl)cc2O1 (stereo not given) |  | 0.793
7 | CC(C)(C)CN1CC(NS(=O)(=O)c2cccc(Cl)c2)CC1=O (stereo not given) |  | 0.964
8 | CC(=O)NC1CCCc2nc(-c3ccccc3)ncc21 (stereo not given) | 0.99 | 
9 | CCC(=O)N[C@@H]1c2ccccc2C2(CCN(Cc3ccc(C(=O)OC)cc3)CC2)[C@H]1OCCOC |  | 0.868
10 | CC(=O)c1cc(CC(=O)NC(C)c2cnn(-c3ccccc3C)c2C)cs1 (stereo not given) | 0.83 | 
11 | O=C(CCc1nnc(Cc2ccc(-c3ccccc3)cc2)o1)N1C[C@@H]2CCC[C@H]1C2 | 0.994 | 
12 | COCc1ccc(C(=O)NCc2cccnc2Oc2ccc(C)nc2)s1 |  | 0.994
13 | CCOC(=O)N1CCC(N2CCC(Oc3ccccc3C(=O)N3CCCCC3)CC2)CC1 | 0.589 | 
14 | c1ccc(CCCN2CCCC(NCc3ccc4nonc4c3)C2)cc1 (stereo not given) | 0.283 | 
15 | Cc1ncoc1C(=O)N1CCc2c([nH]c3ccccc23)C1c1ccccc1F (stereo not given) | 0.987 | 
16 | CCOC(=O)C1(Cc2ccccc2C)CCCN(Cc2cnc(C)s2)C1 (stereo not given) | 0.019 | 
17 | COc1cccc(CN2CCC(Oc3cc(OC)ccc3C(=O)N3CCCC3)CC2)c1 | 1.24 | 
18 | COCc1cc(CN(C)C(=O)c2ccc3oc(CCc4ccccc4)nc3c2)n[nH]1 |  | 0.622
19 | CCN(CC)C(=O)C1CCN(c2nc3nonc3nc2NCc2ccccc2)CC1 | 0.68 | 
20 | c1ccc(CCN(Cc2ccccc2)Cc2nc(-c3cnccn3)no2)cc1 | 0.542 | 

Sorted by number of heavy atoms (descending): some entries from above
Row | Structure (SMILES) | bacterial growth OD600 (polymyxin B 1 µg/mL) | bacterial growth OD600 (polymyxin B 0.75 µg/mL)
13 | CCOC(=O)N1CCC(N2CCC(Oc3ccccc3C(=O)N3CCCCC3)CC2)CC1 | 0.589 | 
2 | CCNC(=O)c1cn(CC(C)C)cc(C(=O)N2CC3(C)CC2CC(C)(C)C3)c1=O (stereo not given) |  | 0.828
16 | CCOC(=O)C1(Cc2ccccc2C)CCCN(Cc2cnc(C)s2)C1 (stereo not given) | 0.019 | 
